Data from patent publication US9193777B2 (Mayo Foundation for Medical Education and Research, priority 2009, dated 2015).

Experiment: Radioimmunoassay of plasma natriuretic peptides in family members
Design: species or system human
Conditions: plasma of family members heterozygous for the NPPA mutation, endogenous peptide

mANP: Full-length 40-amino acid mutant ANP: normal 28-amino acid mature peptide plus an anomalous carboxyl-terminus of 12 residues (SLRRSSCFGGRMDRIGAQSGLGCNSFRYRITAREDKQGWA; listed as Homo sapiens)
plasma concentration of mutant peptide relative to wild-type ANP: 5-10 fold
plasma concentration of mutant peptide relative to wild-type ANP (listed as mutant peptide): 5- to 10 fold
